PubChem BioAssay AID1508588 – Peter MacCallum Cancer Centre – 2020

- Aim: 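Knock-downs boosting vemurafenib effects on melanoma cell growth or lactate release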 (primary screen)
- System: human WM266.4 melanoma cells (BRAF V600 mutant)
- Knock-down reagent: siRNA pool against human genes, 40 nM
- Duration: 96 h from transfection to read-out
- Challenge: vemurafenib 300 nM (about IC25), added 48 h after transfection, for 48 h; comparison arm got DMSO vehicle only
- Measured: 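Ratios to non-targeting siRNA for cell gain, counted as DAPI nuclei after minus before drug and averaged over two replicates, and for absorbance-read medium lactate per cell; both binned into fold-change classes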
- Reading the numbers: cell gain with vemurafenib: higher = more cell gain than with non-targeting siRNA; lactate per cell with vemurafenib: higher = more lactate made per cell
- Call rule: 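a knock-down counts as enhancing when its fold-change classes with vehicle and with vemurafenib, taken together, show a stronger drug effect on cell gain or lactate per cell; exact class pairs not stated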
- Calls: active = enhances vemurafenib effect; inactive = no enhancement seen
Here is one part, drawn at random, of about 18,000 deposited reagents. 790 of them (4.4%) count as active. 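Calls rest on a combination of fold-change classes in drug and vehicle arms, not all shown here.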 Unmarked entries are inactive. No sequences are given here.

For MAGIX the deposit lists cell gain with vemurafenib 0.01; lactate per cell with vemurafenib 0.28.
After knock-down of IL9R the results were cell gain with vemurafenib 0.25; lactate per cell with vemurafenib 0.48.
After knock-down of PLP2 the results were cell gain with vemurafenib 0.41 (active); lactate per cell with vemurafenib 0.7.
Depletion of USH1C resulted in: cell gain with vemurafenib 0.49; lactate per cell with vemurafenib 0.72.
Against ZNF467 the deposit lists cell gain with vemurafenib 0.64; lactate per cell with vemurafenib 0.92.
After knock-down of RXFP3 the results were cell gain with vemurafenib 0.83; lactate per cell with vemurafenib 0.86.
For RAD54B, the entry reads cell gain with vemurafenib 0.55; lactate per cell with vemurafenib 1.15.
DUSP6 showed cell gain with vemurafenib 1.2; lactate per cell with vemurafenib 0.74.
Against CTSD, the values are cell gain with vemurafenib 0.81; lactate per cell with vemurafenib 0.95.
Silencing of CD109 resulted in: cell gain with vemurafenib 0.73; lactate per cell with vemurafenib 0.52.
Depletion of TMEM52 gave: cell gain with vemurafenib 0.47; lactate per cell with vemurafenib 0.43.
After knock-down of ACSM2B, the screen gave cell gain with vemurafenib 0.88; lactate per cell with vemurafenib 0.53.
Depletion of CXCR4 gave: cell gain with vemurafenib 0.14; lactate per cell with vemurafenib 2.45.
Against ARMH3, the values are cell gain with vemurafenib 0.84; lactate per cell with vemurafenib 0.66.
After knock-down of FLAD1 the results were cell gain with vemurafenib 0.6; lactate per cell with vemurafenib 0.98.
SFXN1 scored cell gain with vemurafenib 0.55; lactate per cell with vemurafenib 0.64.
